Experimental data published in patent US10894054B2, “FXR agonist compositions for combination therapy” (Intercept Pharmaceuticals, Inc., priority 2015, dated 2021).

System: liver mRNA samples from the study mice
Experiment: RNA-Seq hepatic terminal gene expression
Assay type: in vivo, male C57BL/6 mice
Settings: alone or combined, relative to vehicle group
Description: RNA purification for RNAseq: Lysis of tissue was performed using a MP FastPrep system. Briefly, 30-50 mg liver biopsy is homogenized and used for RNA extraction on NucleoSpin Plus RNA columns (Macherey-Nagel) as recommended by the supplier. The quantity of the RNA was assessed using a NanoDrop 2000 spectrophotometer (ThermoScientific).
The sequencing data were aligned to the Mus musculus genome obtained from the Ensembl database using the Spliced Transcripts Alignment to a Reference (STAR) software. The python script HTSeq-count available in the HTSeq package was used to count the number of reads mapping to annotated regions. All downstream analysis steps were implemented as scripts for R. For the bioinformatics analysis the quality of the data were evaluated using the standard RNA-seq quality control parameters. To evaluate the inter and intra group variability, principal component analysis and hierarchical clustering were performed. To identify differentially expressed genes the R-package edgeR was used. The list off differentially expressed genes was cross-referenced with information about established NASH biomarkers. Pathway analyses were performed to identify pathways differentially perturbed between the groups.

[1] = high dose: OCA 30 mg/kg, MET 150 mg/kg
[2] = low dose: OCA 10 mg/kg, MET 50 mg/kg

| Structure (SMILES) | Number of Regulated Genes [1] | Number of Regulated Genes [2] |
| --- | --- | --- |
| CN(C)C(=N)N=C(N)N [MET, metformin, reference compound] | 120 | 181 |
| CC[C@H]1[C@@H](O)[C@@H]2[C@H](CC[C@]3(C)[C@@H]([C@H](C)CCC(=O)O)CC[C@@H]23)[C@@]2(C)CC[C@@H](O)C[C@@H]12 [OCA, 3α,7α-dihydroxy-6α-ethyl-5β-cholan-24-oic acid] | 689 | 21 |
